Measurements reported in PubChem BioAssay AID1259308 (NCATS, 2017).
This is a random part of about 59,000 deposited reagents. About 1,510 of all reagents (2.6%) count as active. 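Calls use total luciferase alone and ignore viability, so some active siRNAs may act by altering cell number.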 Reagents against one gene are numbered here. Further read-outs or replicates are left out here.

Test: 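Candidate targets for better recombinant protein yield in mammalian cells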 (primary screen)
Cells: human HEK293 embryonic kidney cells stably expressing firefly luciferase (HEK-CMV-Luc2-Hygro)
Knock-down reagent: single siRNA against human genes, 0.8 pmol siRNA per well
Timing: 72 h
Measured: 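Reporter luminescence and viable-cell signal on separate replicate plates, given as percent of non-targeting control and median/MAD z-scores, plus per-cell luciferase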
Scale: total luciferase, z-score: higher = more reporter protein produced
Hit rule: 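Active when the median/MAD z-score for overall luciferase is greater than 3; a gene was taken forward for validation with new siRNAs if at least two of its three siRNAs passed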
Calls: active = raised luciferase; inactive = no rise

| gene symbol | reagent | total luciferase, z-score | call |
| --- | --- | --- | --- |
| SATB2 | 1 | -0.196 | inactive |
| SATB2 | 2 | 0.111 | inactive |
| SATB2 | 3 | 0.854 | inactive |
| XPNPEP2 | 1 | 1.33 | inactive |
| XPNPEP2 | 2 | 1.13 | inactive |
| XPNPEP2 | 3 | 0.57 | inactive |
| CAMK2N2 | 1 | -1.04 | inactive |
| CAMK2N2 | 2 | 0.569 | inactive |
| CAMK2N2 | 3 | -0.998 | inactive |
| GUSBP1 | 1 | 0.865 | inactive |
| GUSBP1 | 2 | 0.858 | inactive |
| GUSBP1 | 3 | 0.359 | inactive |
| MSMO1 | 1 | -1.24 | inactive |
| MSMO1 | 2 | 0.745 | inactive |
| MSMO1 | 3 | -0.853 | inactive |
| OLFM1 | 1 | -1.06 | inactive |
| OLFM1 | 2 | 1.45 | inactive |
| OLFM1 | 3 | 1.3 | inactive |
| CDC42EP4 | 1 | -0.66 | inactive |
| CDC42EP4 | 2 | 1.45 | inactive |
| CDC42EP4 | 3 | 0.761 | inactive |
| EVI2B | 1 | -1.7 | inactive |
| EVI2B | 2 | -0.953 | inactive |
| EVI2B | 3 | -1.03 | inactive |

Targets listed so far whose gene name starts with C or c (6):
| gene symbol | reagent | total luciferase, z-score | call |
| --- | --- | --- | --- |
| CAMK2N2 | 1 | -1.04 | inactive |
| CAMK2N2 | 2 | 0.569 | inactive |
| CAMK2N2 | 3 | -0.998 | inactive |
| CDC42EP4 | 1 | -0.66 | inactive |
| CDC42EP4 | 2 | 1.45 | inactive |
| CDC42EP4 | 3 | 0.761 | inactive |

Next reagents:
| gene symbol | reagent | total luciferase, z-score | call |
| --- | --- | --- | --- |
| CHP1 | 1 | 1.11 | inactive |
| CHP1 | 2 | 1.46 | inactive |
| CHP1 | 3 | 0.285 | inactive |
| OR7D2 | 1 | -0.986 | inactive |
| OR7D2 | 2 | -0.394 | inactive |
| OR7D2 | 3 | 1.02 | inactive |
| TBC1D4 | 1 | -1.92 | inactive |
| TBC1D4 | 2 | 0.0259 | inactive |
| TBC1D4 | 3 | -0.758 | inactive |
| ADNP2 | 1 | -0.629 | inactive |
| ADNP2 | 2 | -0.336 | inactive |
| ADNP2 | 3 | 0.334 | inactive |
| INSIG1 | 1 | 2.89 | inactive |
| INSIG1 | 2 | -0.166 | inactive |
| INSIG1 | 3 | 0.25 | inactive |
| GTF2H2 | 1 | -1.15 | inactive |
| GTF2H2 | 2 | 2.65 | inactive |
| GTF2H2 | 3 | -0.0952 | inactive |
| DGKB | 1 | -0.298 | inactive |
| DGKB | 2 | -0.42 | inactive |
| DGKB | 3 | 0.814 | inactive |
| LDAH | 1 | -2.77 | inactive |
| LDAH | 2 | 0.342 | inactive |
| LDAH | 3 | -0.197 | inactive |
| KIF14 | 1 | 1.92 | inactive |
| KIF14 | 2 | -1.73 | inactive |
| KIF14 | 3 | 0.117 | inactive |
| VTI1B | 1 | -1.47 | inactive |
| VTI1B | 2 | 1.21 | inactive |
| VTI1B | 3 | -0.116 | inactive |
| LINC02210 | 1 | 0.332 | inactive |
| LINC02210 | 2 | 0.32 | inactive |
| LINC02210 | 3 | 1.28 | inactive |
| LINC02210 | 4 | 0.0541 | inactive |
| LINC02210 | 5 | 0.18 | inactive |
| LINC02210 | 6 | 0.0337 | inactive |
